Source: patent publication US4022791A (priority 1975, dated 1977)

Tested on: mice
Experiment: animal or person
Format: in vivo
Details: Mus musculus, ip, read-out: Tail Pinch ED50

## CN1CC[C@]23c4c5ccc(O)c4O[C@H]2[C@@H](O)C=C[C@H]3[C@H]1C5.O=S(=O)(O)O [Morphine Sulfate, reference compound]
  ED50: 4.8 mg/kg
